Data: PMC3335857, “Heme Oxygenase Isoforms Differ in Their Subcellular Trafficking during Hypoxia and Are Differentially Modulated by Cytochrome P450 Reductase” (PLoS ONE, 2012)
No constants are given. Whether binding was seen depends on the method and setting. Binding seen in cells or lysates may run through a third protein. Sequences can lack the tags named with a protein.

Legend:
[1] = target: T1, CFP-HO-2ΔC289 in HEK293 cells (human) (UniProt P30519); assay: FRET or BRET; FLIM-FRET in intact HEK293 cells at 37°C, co-transfected with CFP-HO (donor) and CPR-YFP (acceptor); CFP-HO-1 single transfection as donor control
T1 sequence: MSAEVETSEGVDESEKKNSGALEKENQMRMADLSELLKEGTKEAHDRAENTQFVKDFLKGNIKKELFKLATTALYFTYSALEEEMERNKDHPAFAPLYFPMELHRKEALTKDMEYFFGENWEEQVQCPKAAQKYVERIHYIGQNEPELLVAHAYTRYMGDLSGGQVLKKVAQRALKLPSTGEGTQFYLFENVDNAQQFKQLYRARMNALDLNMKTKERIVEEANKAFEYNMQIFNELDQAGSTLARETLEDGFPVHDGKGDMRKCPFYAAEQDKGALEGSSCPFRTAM

[2] = target: T2, CFP-HO-1ΔC266 in HEK293 cells (human) (UniProt P09601); assay: as above
T2 sequence: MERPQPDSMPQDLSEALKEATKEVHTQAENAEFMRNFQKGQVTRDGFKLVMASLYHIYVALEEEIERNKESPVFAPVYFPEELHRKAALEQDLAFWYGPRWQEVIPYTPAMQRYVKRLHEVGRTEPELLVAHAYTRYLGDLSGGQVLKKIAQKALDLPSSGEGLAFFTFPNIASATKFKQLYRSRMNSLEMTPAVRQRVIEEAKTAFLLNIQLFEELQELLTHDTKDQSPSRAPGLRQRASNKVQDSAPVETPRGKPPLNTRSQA

binding [1]: no binding | binding [2]: no binding
B1: CPR-YFP in HEK293 cells (enzyme, UniProt P16435 1-677)
chain: MGDSHVDTSSTVSEAVAEEVSLFSMTDMILFSLIVGLLTYWFLFRKKKEEVPEFTKIQTLTSSVRESSFVEKMKKTGRNIIVFYGSQTGTAEEFANRLSKDAHRYGMRGMSADPEEYDLADLSSLPEIDNALVVFCMATYGEGDPTDNAQDFYDWLQETDVDLSGVKFAVFGLGNKTYEHFNAMGKYVDKRLEQLGAQRIFELGLGDDDGNLEEDFITWREQFWPAVCEHFGVEATGEESSIRQYELVVHTDIDAAKVYMGEMGRLKSYENQKPPFDAKNPFLAAVTTNRKLNQGTERHLMHLELDISDSKIRYESGDHVAVYPANDSALVNQLGKILGADLDVVMSLNNLDEESNKKHPFPCPTSYRTALTYYLDITNPPRTNVLYELAQYASEPSEQELLRKMASSSGEGKELYLSWVVEARRHILAILQDCPSLRPPIDHLCELLPRLQARYYSIASSSKVHPNSVHICAVVVEYETKAGRINKGVATNWLRAKEPAGENGGRALVPMFVRKSQFRLPFKATTPVIMVGPGTGVAPFIGFIQERAWLRQQGKEVGETLLYYGCRRSDEDYLYREELAQFHRDGALTQLNVAFSREQSHKVYVQHLLKQDREHLWKLIEGGAHIYVCGDARNMARDVQNTFYDIVAELGAMEHAQAVDYIKKLMTKGRYSLDVWS
